According to PubChem BioAssay AID588497 (NMMLSC, 2011):
Hit rate of the full screen: of about 360,000 compounds, about 780 (0.22%) were called active. The shares of active, inactive and inconclusive entries below differ from those in the screen. Cut-off read from the data, not from the text of the source: active = inhibition above about 35% (passing the limit was not always enough); inconclusive = no clear call, values can overlap the other calls.

These compounds were tested on Botulinum neurotoxin type F light chain protease (Clostridium botulinum) (assay: BoNT/F light chain protease inhibitors, primary screen, biochemical, flow cytometry, MLPCN library (AID 588497; note: plate controls were buffer without enzyme for full effect and enzyme alone for no effect)). Details: Multiplex microsphere protease cleavage assay, at 10 µM, active compounds read high.

SMILES	inhibition
CCn1c(SCC(=O)N2CCC(C)CC2)nnc1-c1ccc(S(=O)(=O)N2CCN(C)CC2)cc1	inconclusive: 1.1%
COc1ccc(CCCc2nnc(SCC(=O)Nc3cccc(C)c3)o2)cc1	inactive: -5.7%
O=C(NCCS(=O)(=O)NCCc1ccccc1)c1ccc2c(c1)OCO2	inconclusive: 3.8%
COc1ccc(CNC(=O)CSc2nc3cccnc3s2)cc1	inconclusive: 23.9%
CCOc1ccccc1NC(=O)c1ccc(S(=O)(=O)N2CCOCC2)cc1	inactive: -7.6%
CCOC(=O)C1CCN(C(=O)Nc2ccc(Cl)cc2)CC1	inconclusive: 23.6%
Cc1ccc(CNC(=O)c2sc3nc4c(c(C(F)(F)F)c3c2N)CCC4)cc1	inactive: -0.8%
N#Cc1c(C(F)(F)F)cc(-c2cccc(Cl)c2)[nH]c1=O	inactive: -22.8%
CCN(CC)C(=O)C1(P(=O)(c2ccccc2)c2ccccc2)CCC1	inconclusive: -31%
CCN(CC(=O)Nc1c(F)cccc1F)C(=O)c1cc2c(cc1Cl)N1CCCCCC1=NS2(=O)=O	inconclusive: 1.6%
Cc1ccc(-c2noc(CN(C(=O)Cc3ccccc3)C(C)C)n2)cc1	inactive: 5.3%
COc1ccc(OCC(=O)N2CCN(C(=O)c3ccccc3)CC2)cc1	inactive: -13.5%
O=C(Nc1ccc(Nc2ccccc2)cc1)c1ccc(Cl)cc1[N+](=O)[O-]	inconclusive: -68%
COc1ccc(OCCSc2nnc(CC(=O)Nc3cccc(Cl)c3Cl)n2C)cc1	inactive: -8.6%
CCCCOc1ccc(/C=N/NC(=S)Nc2cc(C)ccc2C)cc1	inconclusive: -8.3%
O=C(c1ccccc1)N1CC(COc2ccccc2)OC(c2cccnc2)O1 (stereo unspecified)	inconclusive: 3.3%
Cc1ccc(C)c(C(C)NC(=O)c2ccncc2)c1 (stereo unspecified)	inconclusive: -16.1%
Cc1ccc(S(=O)(=O)N2CCC(C(=O)OCC(=O)N3CCCCC3C)CC2)cc1C (stereo unspecified)	inactive: 4.1%
CC(=O)Oc1ccc(N(C(C)=O)S(=O)(=O)c2ccc(Cl)cc2)c2ccccc12	inconclusive: -5.6%

An excerpt from above in order of number of heavy atoms, ascending.
SMILES	inhibition
Cc1ccc(C)c(C(C)NC(=O)c2ccncc2)c1 (stereo unspecified)	inconclusive: -16.1%
O=C(Nc1ccc(Nc2ccccc2)cc1)c1ccc(Cl)cc1[N+](=O)[O-]	inconclusive: -68%
Cc1ccc(S(=O)(=O)N2CCC(C(=O)OCC(=O)N3CCCCC3C)CC2)cc1C (stereo unspecified)	inactive: 4.1%

Going on with the list.

SMILES	inhibition
COC(=O)N1CCC2CC1c1c(Cl)cccc12 (stereo unspecified)	inactive: 2.6%
COc1cc(OC)cc(C(=O)NC(=S)NNC(=O)[C@H]2C[C@@H]2c2ccccc2)c1	inconclusive: -21.8%
COc1cc2c(c(OC)c1OC)-c1ccc(N(C)CC(OC)OC)c(=O)cc1[C@@H](NC(C)=O)CC2	inactive: -3.3%
CC(=O)c1cccc(NC(=S)NC(=O)c2cncc(Br)c2)c1	inconclusive: -2.5%
Cc1cccc(OCc2nnc(SCC(=O)O)n2-c2ccccc2)c1	inconclusive: 39.8%
Cc1cccc(N(CC(=O)N/N=C/c2ccc(C(=O)O)cc2)S(=O)(=O)c2ccccc2)c1C	inconclusive: -65.1%
CCN(CC)c1ccc(C=C2C(=O)OC(c3ccccc3)OC2=O)cc1 (stereo unspecified)	inactive: 4%
CCC(C)NC(=S)Nc1ccccc1 (stereo unspecified)	inconclusive: 38.6%
CC1=NN(C(N)=S)C(=O)C1N=Nc1ccc(Cl)cc1 (stereo unspecified)	inconclusive: -36.4%
CC(C)c1ccc(C(O)P(=O)(OCc2ccccc2)c2ccc(N(C)C)cc2)cc1 (stereo unspecified)	inconclusive: -1.6%
Fc1ccc(NC(=S)N2CCc3[nH]c4ccccc4c3C2)cc1	inconclusive: -0.9%
CCC(C(=O)NC(C)(C)C)N(Cc1ccc(F)cc1)C(=O)c1snc(C(N)=O)c1N (stereo unspecified)	inconclusive: -35.6%
O=C1CCC(=O)N1c1ccc(-c2nc3sc4c(c3c(=O)o2)CCC4)cc1	inconclusive: 18.9%
Cc1ccc(S(=O)(=O)N(CC(O)CN2CCCCC2)c2ccccc2)cc1 (stereo unspecified)	inactive: -12.2%
CCOc1ccccc1NC(=O)c1ccccc1-c1ccccc1	inconclusive: -15.1%
COc1ccc(C(c2c(N)[nH]c(=S)[nH]c2=O)c2c(N)[nH]c(=S)[nH]c2=O)cc1	inconclusive: 4.9%
COc1ccc(OC)c(NC(=O)c2ccc(NS(=O)(=O)c3c(C)noc3C)cc2)c1	inconclusive: -28.9%
C=C(C)CN1C(=O)C2(OCCO2)c2cc(Br)ccc21	inconclusive: -83.4%
CCC(CC)NCc1c[nH]c2ccccc12	inactive: 0.8%

Entries from the list above that have a Cl atom:
SMILES	inhibition
CCOC(=O)C1CCN(C(=O)Nc2ccc(Cl)cc2)CC1	inconclusive: 23.6%
N#Cc1c(C(F)(F)F)cc(-c2cccc(Cl)c2)[nH]c1=O	inactive: -22.8%
CCN(CC(=O)Nc1c(F)cccc1F)C(=O)c1cc2c(cc1Cl)N1CCCCCC1=NS2(=O)=O	inconclusive: 1.6%
O=C(Nc1ccc(Nc2ccccc2)cc1)c1ccc(Cl)cc1[N+](=O)[O-]	inconclusive: -68%
COc1ccc(OCCSc2nnc(CC(=O)Nc3cccc(Cl)c3Cl)n2C)cc1	inactive: -8.6%
CC(=O)Oc1ccc(N(C(C)=O)S(=O)(=O)c2ccc(Cl)cc2)c2ccccc12	inconclusive: -5.6%
COC(=O)N1CCC2CC1c1c(Cl)cccc12 (stereo unspecified)	inactive: 2.6%
CC1=NN(C(N)=S)C(=O)C1N=Nc1ccc(Cl)cc1 (stereo unspecified)	inconclusive: -36.4%

The listing continues.

SMILES	inhibition
CN(C)CC#CCC(O)(c1ccccc1)c1ccccc1	inconclusive: -24.8%
CCOC(=O)c1c(NC(=S)N2CCOCC2)sc(C)c1C	active: 47.5%
CC(=O)Nc1ccc(S(=O)(=O)N(C)CC(=O)Nc2ccccc2N2CCCC2)cc1	inconclusive: 12.2%
O=C(Cc1ccc([N+](=O)[O-])cc1)NCc1cccnc1	inconclusive: -19.4%
O=C(Cn1cc(S(=O)(=O)N2CCN(c3ccccc3F)CC2)c2ccccc2c1=O)NCCCN1CCCCCC1	inactive: -4.4%
CC1CCCC(NC(=O)COC(=O)/C=C/c2ccc(F)cc2)C1C (stereo unspecified)	inactive: -6.9%
Cc1c(OCC(=O)C(C)(C)C)ccc2c3c(c(=O)oc12)CCCC3	inconclusive: -8.3%
O=[N+]([O-])c1cccc(/C([O-])=C(/C(=S)Nc2ccccc2)[n+]2ccccc2)c1	inactive: -25%
COc1ccc2c(c1)C1(Nc3ccccc3-c3nc4ccccc4n31)C(=O)N2 (stereo unspecified)	inactive: 4.1%
COc1ccc(C(CNC(=O)c2ccc(C)c(S(=O)(=O)N3CCCCC3)c2)N2CCCC2)cc1 (stereo unspecified)	active: 86.3%
N#Cc1ccccc1OCC(=O)NNC(=O)CNC(=O)c1cccc(Br)c1	inconclusive: -14.1%
Cc1cc(C)n(-c2nc(-c3ccccc3)cs2)n1	inactive: -1.3%
O=C(O)c1ccc(NC(=O)c2ccccc2NC(=O)c2cccc(F)c2)cc1	inconclusive: -17.6%
O=C(COC(=O)CSc1ccccc1)NCCNC(=O)COC(=O)CSc1ccccc1	inconclusive: -22%
Cn1c(C(=O)N2CCC(C(N)=O)CC2)cc2cc(Cl)ccc21	inconclusive: -7.7%
COc1cccc2c1OC1(CCN(C(C)C)CC1)N1N=C(c3cccnc3)CC21 (stereo unspecified)	inconclusive: 38.1%
CCNC(=S)NNC(=O)Nc1ccccc1	inactive: -0.7%
CN1OC[C@@H]2CN(Cc3ccccc3)[C@H](c3ccc(-n4ccnc4)cc3)C[C@@H]21	inactive: -0.6%
